In the experiment the test system is rat model of adjuvant arthritis. As to the kind of experiment: Rat adjuvant arthritis, oral NC-2300 compared with alendronate. In kind it is in vivo. The note with it: pQCT day 36. Here is the method:
NC-2300 was orally administered to a rat model of adjuvant arthritis, and was compared with alendronate in pharmacological test. Rats were injected with complete Freund's adjuvant on day 0. NC-2300, alendronate or vehicle was administered to the rats at the indicated doses daily starting on day 0 up to day 35.
The proximal tibia was radiologically examined (using soft X-rays) on day 36 to measure the effect of NC-2300 or alendronate on periarticular osteoporosis to measure effect of NC-2300 or alendronate on periarticular osteoporosis. Bone mineral density of the proximal tibia assessed by pQCT (day 36).
Assessment for hind paws of adjuvant arthritis rats treated with NC-2300 or vehicle.
Adjuvant arthritis in hind paw administered with NC-2300 or vehicle was evaluated.
Recovery of locomotion activity of arthritic rats by NC-2300 (day 35) was measured.

SMILES strings stand for the structures.

On to `NCCCC(O)(P(=O)(O)O)P(=O)(O)O` [alendronate, reference compound], for which the “periarticular osteoporosis in the proximal tibia (bone mineral density)” value was “comparable inhibitory effect”.

The record behind these values is US20100331545A1, “REGULATOR FOR SIGNALING TOLL-LIKE RECEPTOR, WHICH COMPRISES CATHEPSIN INHIBITOR AS ACTIVE INGREDIENT” (NIPPON CHEMIPHAR CO., LTD., priority 2007, published 2010).
